These results are taken from the supplement of paper PMC6411743.

Chains of the proteins cited; added tags and fusions are not shown. Lines headed by an entry give the natural chain unless they say otherwise; changes in a name come on top.
UniProt Q53HL2: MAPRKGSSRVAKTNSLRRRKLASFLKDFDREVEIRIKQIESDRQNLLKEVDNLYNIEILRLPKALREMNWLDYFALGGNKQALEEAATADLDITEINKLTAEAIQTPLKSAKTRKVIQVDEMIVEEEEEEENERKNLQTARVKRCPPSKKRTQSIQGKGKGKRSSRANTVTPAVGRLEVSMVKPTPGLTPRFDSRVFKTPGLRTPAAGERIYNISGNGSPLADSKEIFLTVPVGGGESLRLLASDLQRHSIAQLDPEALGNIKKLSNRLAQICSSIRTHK
UniProt Q5T160: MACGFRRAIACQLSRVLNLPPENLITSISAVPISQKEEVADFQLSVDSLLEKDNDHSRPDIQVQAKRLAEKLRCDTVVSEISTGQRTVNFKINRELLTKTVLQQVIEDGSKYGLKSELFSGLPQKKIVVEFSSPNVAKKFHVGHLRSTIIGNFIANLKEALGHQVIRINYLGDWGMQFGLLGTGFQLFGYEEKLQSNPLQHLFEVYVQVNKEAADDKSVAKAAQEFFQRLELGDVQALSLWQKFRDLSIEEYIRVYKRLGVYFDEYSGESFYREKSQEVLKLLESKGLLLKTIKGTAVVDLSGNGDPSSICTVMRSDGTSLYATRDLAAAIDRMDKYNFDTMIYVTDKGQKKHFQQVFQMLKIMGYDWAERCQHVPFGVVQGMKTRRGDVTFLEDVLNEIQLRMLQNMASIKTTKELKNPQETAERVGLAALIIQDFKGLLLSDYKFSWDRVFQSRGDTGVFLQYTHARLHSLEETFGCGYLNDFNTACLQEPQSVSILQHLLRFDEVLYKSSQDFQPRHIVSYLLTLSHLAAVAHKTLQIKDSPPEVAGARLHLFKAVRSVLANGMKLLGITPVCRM
UniProt Q15910, whole entry, looked up: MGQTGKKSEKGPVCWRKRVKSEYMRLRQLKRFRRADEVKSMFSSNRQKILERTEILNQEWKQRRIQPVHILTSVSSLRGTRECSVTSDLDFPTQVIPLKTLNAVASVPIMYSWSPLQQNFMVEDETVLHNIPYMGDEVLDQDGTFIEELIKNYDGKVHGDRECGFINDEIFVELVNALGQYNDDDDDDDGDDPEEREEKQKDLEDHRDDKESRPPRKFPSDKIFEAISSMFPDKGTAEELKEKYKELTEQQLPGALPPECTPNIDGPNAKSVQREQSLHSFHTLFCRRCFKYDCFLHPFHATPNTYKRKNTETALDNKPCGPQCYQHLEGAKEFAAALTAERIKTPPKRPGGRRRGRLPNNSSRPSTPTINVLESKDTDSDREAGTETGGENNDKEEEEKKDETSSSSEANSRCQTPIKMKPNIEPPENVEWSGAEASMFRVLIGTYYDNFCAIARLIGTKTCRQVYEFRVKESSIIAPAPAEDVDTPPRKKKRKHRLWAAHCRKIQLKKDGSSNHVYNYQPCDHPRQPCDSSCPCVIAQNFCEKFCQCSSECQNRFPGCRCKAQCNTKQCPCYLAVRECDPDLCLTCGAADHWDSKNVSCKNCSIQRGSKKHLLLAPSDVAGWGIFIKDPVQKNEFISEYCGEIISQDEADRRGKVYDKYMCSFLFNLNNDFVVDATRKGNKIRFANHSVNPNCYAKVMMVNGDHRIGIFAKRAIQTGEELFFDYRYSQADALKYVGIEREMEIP
UniProt Q15427: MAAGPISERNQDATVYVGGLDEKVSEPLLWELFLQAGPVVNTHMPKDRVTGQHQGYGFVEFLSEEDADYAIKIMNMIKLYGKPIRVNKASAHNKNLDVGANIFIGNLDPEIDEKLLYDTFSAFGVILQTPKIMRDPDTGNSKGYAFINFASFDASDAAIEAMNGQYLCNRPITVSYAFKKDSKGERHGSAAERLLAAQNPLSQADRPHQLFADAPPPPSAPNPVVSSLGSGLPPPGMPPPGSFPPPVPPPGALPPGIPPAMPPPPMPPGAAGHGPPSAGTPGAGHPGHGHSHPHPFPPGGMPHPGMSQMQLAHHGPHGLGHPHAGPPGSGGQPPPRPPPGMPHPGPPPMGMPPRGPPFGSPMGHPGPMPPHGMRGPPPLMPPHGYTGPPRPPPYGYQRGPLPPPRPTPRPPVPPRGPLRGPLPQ

± gives the standard deviation of the averaged measurements. Some of the results follow.

Compound in this test: Nc1nc2c(ncn2[C@@H]2O[C@H](COP(=O)(O)OP(=O)(O)OP(=O)(O)O)[C@@H](O)[C@H]2O)c(=O)[nH]1 [guanosine triphosphate]
The test is described as follows: NP40-soluble protein abundance relative to vehicle (solubility fold change) (ratio); higher = more soluble protein in presence of GTP. The protocol: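 Solubility proteome profiling in Jurkat crude lysate. Lysate was treated with Mg-GTP (0.1-10 mM) for 10 min at room temperature and 3 min at 37 °C, then solubilised with 0.8% NP40 and benzonase, followed by ultracentrifugation. Proteins were quantified by TMT10 LC-MS/MS; the value is the NP40-soluble abundance relative to the NP40-processed vehicle, from 3 independent experiments.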

Take CDCA8 (UniProt Q53HL2): the NP40-soluble protein abundance worked out at 1.03 ± 0.14 (concentration: 0.1mM); 0.969 ± 0.047 (concentration: 0.5mM); 1.06 ± 0.17 (concentration: 1mM); 1.19 ± 0.23 (concentration: 2mM); 1.17 ± 0.2 (concentration: 4mM); 1.22 ± 0.23 (concentration: 6mM). In addition, the NP40-soluble protein abundance is 1.19 ± 0.064 (concentration: 8mM) and 1.53 ± 0.22 (concentration: 10mM).
In the case of UniProt Q16555 and related entries, the NP40-soluble protein abundance runs as follows: (concentration: 0.1mM) 0.98 ± 0.043; (concentration: 0.5mM) 0.983 ± 0.031; (concentration: 1mM) 0.973 ± 0.029; (concentration: 2mM) 0.955 ± 0.035; (concentration: 4mM) 0.966 ± 0.039; (concentration: 6mM) 0.957 ± 0.025. Also, the NP40-soluble protein abundance by setting is: (concentration: 8mM) 0.97 ± 0.041; (concentration: 10mM) 0.92 ± 0.034.
With RARS2 (UniProt Q5T160), the NP40-soluble protein abundance by setting is: (concentration: 0.1mM) 1.02 ± 0.033; (concentration: 0.5mM) 1.06 ± 0.037; (concentration: 1mM) 0.974 ± 0.024; (concentration: 2mM) 0.998 ± 0.042; (concentration: 4mM) 1.017 ± 0.0049; (concentration: 6mM) 0.934 ± 0.027. In addition, the NP40-soluble protein abundance was found to be 0.917 ± 0.026 (concentration: 8mM) and 0.945 ± 0.043 (concentration: 10mM).
As for UniProt Q15910 and related entries, the NP40-soluble protein abundance was 1.07 ± 0.026 (concentration: 0.1mM); 1.12 ± 0.026 (concentration: 0.5mM); 1.12 ± 0.051 (concentration: 1mM); 1.18 ± 0.059 (concentration: 2mM); 1.23 ± 0.086 (concentration: 4mM); 1.26 ± 0.08 (concentration: 6mM). Moreover, the NP40-soluble protein abundance runs as follows: (concentration: 8mM) 1.33 ± 0.14; (concentration: 10mM) 1.3 ± 0.043.
Take SF3B4 (UniProt Q15427): the NP40-soluble protein abundance (concentration: 0.1mM) was found to be 0.944 ± 0.16; the NP40-soluble protein abundance (concentration: 0.5mM) was 1.03 ± 0.17; the NP40-soluble protein abundance (concentration: 1mM) worked out at 1 ± 0.16; the NP40-soluble protein abundance (concentration: 2mM) was 1.07 ± 0.16; the NP40-soluble protein abundance (concentration: 4mM) was found to be 1.11 ± 0.17; the NP40-soluble protein abundance (concentration: 6mM) came to 1.09 ± 0.16. Moreover, the NP40-soluble protein abundance stood at 1.15 ± 0.2 (concentration: 8mM) and 1.13 ± 0.2 (concentration: 10mM).
